The results in this text go back to patent US20210061908A1.

Test [1] deals with T1, IGSF11-hFc (UniProt Q5DX21).
T1 sequence (looked up): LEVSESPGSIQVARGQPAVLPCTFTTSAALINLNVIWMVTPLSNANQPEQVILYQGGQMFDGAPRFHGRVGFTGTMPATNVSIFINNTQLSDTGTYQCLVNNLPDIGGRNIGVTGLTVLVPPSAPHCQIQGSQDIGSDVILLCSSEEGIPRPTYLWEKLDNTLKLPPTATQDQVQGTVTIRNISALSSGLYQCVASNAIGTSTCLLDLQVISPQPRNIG
Put plainly: ELISA, coated IGSF11-hFc, IgG1 format; EC50 grade (# >10 nM, ## 1-10 nM, ### <1 nM).

Test [2] has as its target T1, IGSF11-hFc. Put plainly: ELISA, coated IGSF11-hFc, IgG1 format; EC50 column; the cell uses '*' although the legend of this column uses '#'. Background: An ELISA detects its analyte on a solid surface through an enzyme-linked reagent.

Results are given in words; binding and its absence hold for the method and conditions named. Some binding calls cover weakened binding; strength is not graded here.

B1: A-022 (human IgG1 format) (antibody, V domains shown)
VH: EVQLLESGPGLVKPSQTLSLTCTVSGGSISSGGYYWSWIRQHPGKGLEWIGYIYYSGSTYYNPSLKSRVTISVDTSKNQFSLKLSSVTAADTAVYYCARASRSTDYYFDYWGQGTLVTVSS
VL: QPGLTQPPSMSYGLGQTATLTCTGNRNNIGDQGAAWLQQHQGHPPKLLSYRNNNGPSGISERLSASRSGNTASLTISGLQPEDEADYYCSAWDSSLRAWVFGGGTKLTVL
On to B1, for which, in the test with IGSF11-hFc [1], the binding result is recorded as “binds”.

B2: A-035 (human IgG1 format) (antibody, V domains shown)
VH: QVQLVQSGAEVKKPGASVKVSCKASGYTFTGYYMHWVRQAPGQGLEWMGWINPNSGNTGYAQKFQGRVTMTRNTSISTAYMELSSLRSEDTAVYYCARGRLERGYWYFDLWGRGTLVTVSS
VL: NFMLTQPHSVSESPGRTVTISCTRSSGSITSNYVQWYQQRPGSAPTILIYEDKERPSEVPDRFSGSIDISSNSASLTISGLKTEDEADYYCQSYGGTSQGVLFGGGTKVTVL
For the molecule B2, the binding result with IGSF11-hFc [1] was “binds”.

B3: A-006 (human IgG1 format) (antibody, V domains shown)
VH: EVQLVESGGGLIQPGGSLRLSCAASGFTVSSNYMSWVRQAPGKGLEWVSVIYSGGSTYYADSVKGRFTISRDNSKNTLYLQMNSLRAEDTAVYYCARGNPYYYGDLQVNFDYWGQGTLVTVSS
VL: QAVVTQEPSLTVSPGGTVTLTCASSTGAVTSGYYPNWFQQKPGQAPRPLIYSTSNKHSWTPARFSGSLLGGKAALTLSGVQPDDEAEYYCLLYYGGDWVFGGGTKLTVL
As to B3, the binding result with IGSF11-hFc [2] was “binds”.
